No constants are given. Whether binding was seen depends on the method and setting. In cells and extracts the contact can be indirect. Some results given as binding are weak or reduced against the parent protein; the word gives no strength.
Biological target: TNFR2 FRET biosensor (full-length TNFR2 with C-terminal fusion of mNg or ShY) (UniProt P20333)
Assay: FRET or BRET; fluorescence lifetime (FLT) FRET in live HEK293T cells; transient co-transfection of donor- and acceptor-tagged copies at a 1:1 donor-to-acceptor ratio, compared with donor only; single or mixed cell populations; also with zafirlukast treatment

The chains behind the UniProt entries cited, without tags or fusion partners. Residues count along the entry.
UniProt P20333, residues 23-461: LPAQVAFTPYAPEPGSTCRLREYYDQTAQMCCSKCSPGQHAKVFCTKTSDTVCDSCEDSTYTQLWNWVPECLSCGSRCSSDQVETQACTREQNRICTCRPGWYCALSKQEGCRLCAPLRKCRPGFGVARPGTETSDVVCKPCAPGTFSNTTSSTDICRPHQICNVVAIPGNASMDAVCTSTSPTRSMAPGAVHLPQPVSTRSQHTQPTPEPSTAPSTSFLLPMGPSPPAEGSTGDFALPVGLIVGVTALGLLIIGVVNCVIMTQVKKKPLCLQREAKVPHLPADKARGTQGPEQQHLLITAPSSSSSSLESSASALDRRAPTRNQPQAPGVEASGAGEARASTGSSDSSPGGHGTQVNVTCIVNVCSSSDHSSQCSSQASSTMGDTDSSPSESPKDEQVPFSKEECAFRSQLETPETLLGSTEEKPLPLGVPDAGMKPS

TNFR2 FRET biosensor (full-length TNFR2 with C-terminal fusion of mNg or ShY) (from UniProt P20333 23-461) (receptor)
binding: binds

Reference: PMC12136217
